Patent US20230078601A1 (CLEVELAND CLINIC FOUNDATION, published 2023)
These are yes or no findings as the source states them, for the method shown. Some results given as binding are weak or reduced against the parent protein; the word gives no strength. Where a sequence is shown, tags or fusion partners need not be part of it.

Molecular target: 4D12G1 mAb
Experiment: competitive ELISA: 4D12G1 pre-incubated with rising soluble rhAMHR2-ED, then added to plates coated with rhAMHR2-ED; soluble rhAMHR2-ED is the varied competing protein

B1: recombinant extracellular domain of human AMHR2 (rhAMHR2-ED), C-terminal hexahistidine-tagged fusion protein (receptor)
chain: PPNRRTCVFFEAPGVRGSTKTLGELLDTGTELPRAIRCLYSRCCFGIWNLTQDRAQVEMQGCRDSDEPGCESLHCDPSPRAHPSPGSTLFTCSCGTDFCNANYSHLPPPGSPGTPGSQGPQAAPGESIWMALHHHHHH
binding: binds
